# Measurements as given in PMC6255864.
# Results are given in words; binding and its absence hold for the method and conditions named. Some results given as binding are weak or reduced against the parent protein; the word gives no strength.
# T1: annexin-V, membrane-bound trimeric form (A5) (human), P08758
# T1 chain: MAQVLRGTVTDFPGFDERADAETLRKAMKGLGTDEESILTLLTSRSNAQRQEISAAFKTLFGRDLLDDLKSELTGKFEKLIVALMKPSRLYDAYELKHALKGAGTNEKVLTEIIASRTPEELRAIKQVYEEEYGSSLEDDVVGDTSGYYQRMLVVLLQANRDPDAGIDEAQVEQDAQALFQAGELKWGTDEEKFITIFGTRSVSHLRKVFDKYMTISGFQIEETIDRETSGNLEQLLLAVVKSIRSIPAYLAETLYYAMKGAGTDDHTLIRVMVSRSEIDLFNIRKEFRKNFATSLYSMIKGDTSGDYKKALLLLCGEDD
# B1: annexin-V, membrane-bound trimeric form (A5), P08758 1-320 (natural protein)
# chain: T1 chain
# How the values were obtained:
# [1] = target: annexin-V, membrane-bound trimeric form (A5) (human) (UniProt P08758); assay: HS-AFM height spectroscopy (HS-AFM-HS); tip held at a fixed x,y position over a DOPC/DOPS (8:2) supported bilayer; unlabeled membrane-bound A5 diffusing under the tip; oligomer surface densities from dwell-time peaks fitted to Eq. (5); 2D dissociation constants in µm^-2; 10 mM HEPES pH 7.4, 150 mM NaCl, CaCl2 0-2 mM; 'monomer' = one A5 trimer; both purified
# [2] = target: T1, annexin-V, membrane-bound trimeric form …; assay: HS-AFM imaging; annexin-V from solution on a DOPC/DOPS (8:2) supported lipid bilayer on mica; Ca2+ released from NP-EGTA by UV; 10 mM HEPES pH 7.4, 150 mM NaCl; self-assembly into p6 2D-crystals; both purified; details: remark: other sources report otherwise
molecule,measurement,setting,value
"annexin-V, membrane-bound trimeric form (A5) (from UniProt P08758 1-320)",binding,[1],binds weakly
B1,binding,[2],binds
